Laboratory results published in paper PMC5983848.
No constants are given. Whether binding was seen depends on the method and setting. In cells and extracts the contact can be indirect. Some entries that bind do so weakly or less than the wild type. For some of these results: Where a sequence is shown, tags or fusion partners need not be part of it. Each block holds one substance with its values, some of them ahead of it.

Protein sequences, listed by entry. Tags and fused reporters are not part of them. Lines headed by an entry give the natural chain unless they say otherwise; changes in a name come on top.
UniProt P43354: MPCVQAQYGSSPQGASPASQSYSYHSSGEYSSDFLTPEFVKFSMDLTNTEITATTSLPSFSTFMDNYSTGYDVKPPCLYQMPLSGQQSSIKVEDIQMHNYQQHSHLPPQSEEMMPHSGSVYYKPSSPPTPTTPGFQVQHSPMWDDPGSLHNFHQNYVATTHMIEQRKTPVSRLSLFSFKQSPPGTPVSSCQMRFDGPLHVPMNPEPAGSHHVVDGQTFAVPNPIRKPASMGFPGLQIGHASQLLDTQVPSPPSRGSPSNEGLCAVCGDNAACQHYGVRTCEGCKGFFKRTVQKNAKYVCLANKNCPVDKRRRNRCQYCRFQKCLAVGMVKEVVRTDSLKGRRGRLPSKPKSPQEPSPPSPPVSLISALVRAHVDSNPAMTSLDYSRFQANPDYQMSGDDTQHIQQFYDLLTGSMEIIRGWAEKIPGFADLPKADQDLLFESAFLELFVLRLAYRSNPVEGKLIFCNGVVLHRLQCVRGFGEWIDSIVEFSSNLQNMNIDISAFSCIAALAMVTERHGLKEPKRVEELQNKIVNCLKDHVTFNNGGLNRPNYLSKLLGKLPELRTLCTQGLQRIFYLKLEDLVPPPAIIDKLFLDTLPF
UniProt P09874: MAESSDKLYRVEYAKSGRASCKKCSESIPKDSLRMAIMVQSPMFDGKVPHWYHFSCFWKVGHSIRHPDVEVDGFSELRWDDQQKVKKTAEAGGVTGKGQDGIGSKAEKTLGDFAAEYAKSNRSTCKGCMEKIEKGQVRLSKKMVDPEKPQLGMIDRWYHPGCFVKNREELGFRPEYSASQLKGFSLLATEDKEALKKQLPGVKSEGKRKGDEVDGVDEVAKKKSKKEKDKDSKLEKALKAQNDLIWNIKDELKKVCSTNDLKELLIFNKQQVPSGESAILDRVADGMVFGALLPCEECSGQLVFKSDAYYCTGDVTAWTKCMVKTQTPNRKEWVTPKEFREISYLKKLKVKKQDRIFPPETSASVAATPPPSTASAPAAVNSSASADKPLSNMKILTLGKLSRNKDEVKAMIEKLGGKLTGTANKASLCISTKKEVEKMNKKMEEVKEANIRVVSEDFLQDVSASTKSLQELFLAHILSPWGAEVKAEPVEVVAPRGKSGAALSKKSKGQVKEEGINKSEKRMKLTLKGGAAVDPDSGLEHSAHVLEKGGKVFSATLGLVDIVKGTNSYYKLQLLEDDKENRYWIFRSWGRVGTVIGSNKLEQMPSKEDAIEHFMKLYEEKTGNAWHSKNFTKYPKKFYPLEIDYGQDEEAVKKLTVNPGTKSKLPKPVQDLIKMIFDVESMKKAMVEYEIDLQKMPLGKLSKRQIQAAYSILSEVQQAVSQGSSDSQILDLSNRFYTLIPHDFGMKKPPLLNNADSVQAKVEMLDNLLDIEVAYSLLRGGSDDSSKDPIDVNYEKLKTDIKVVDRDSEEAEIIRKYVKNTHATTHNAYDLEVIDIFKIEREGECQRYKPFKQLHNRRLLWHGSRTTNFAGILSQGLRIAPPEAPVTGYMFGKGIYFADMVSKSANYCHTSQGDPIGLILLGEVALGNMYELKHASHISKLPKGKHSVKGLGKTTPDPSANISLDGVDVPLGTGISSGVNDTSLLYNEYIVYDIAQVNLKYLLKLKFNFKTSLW

Tests used:
[1] = target: FLAG-Nurr1, in vitro translated (UniProt P43354); assay: pull-down; in vitro-translated FLAG-tagged proteins mixed with in vitro-translated HA-PARP1 for 1 h at room temperature, immunoprecipitated with anti-FLAG M2 agarose, western blot
[2] = target: T1, FLAG-tagged malonyl-CoA (coenzyme A) decarboxylase (MLYCD), in vitro translated (UniProt O95822); assay: as above
T1 sequence: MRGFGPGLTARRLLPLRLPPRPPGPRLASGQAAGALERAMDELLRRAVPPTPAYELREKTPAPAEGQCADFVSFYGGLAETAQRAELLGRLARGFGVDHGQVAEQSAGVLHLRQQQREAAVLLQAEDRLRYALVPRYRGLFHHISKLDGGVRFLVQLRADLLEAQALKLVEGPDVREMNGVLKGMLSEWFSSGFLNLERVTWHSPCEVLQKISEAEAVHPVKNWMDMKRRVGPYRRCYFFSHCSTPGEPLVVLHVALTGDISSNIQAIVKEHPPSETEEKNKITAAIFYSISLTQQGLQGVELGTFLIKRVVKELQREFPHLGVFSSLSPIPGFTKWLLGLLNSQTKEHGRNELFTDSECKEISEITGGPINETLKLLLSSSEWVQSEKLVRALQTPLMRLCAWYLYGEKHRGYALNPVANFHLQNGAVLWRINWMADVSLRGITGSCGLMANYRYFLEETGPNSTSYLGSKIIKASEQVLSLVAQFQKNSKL

[3] = target: poly(ADP-ribose) polymerase 1 (PARP1), endogenous in H295R cells (human (endogenous in H295R)) (UniProt P09874); assay: co-IP; lysates of H295R cells stimulated with or without 100 nM angiotensin II for 6 h, endogenous proteins, western blot with anti-Nurr1 and anti-PARP1; rabbit IgG immunoprecipitates as negative control
[4] = target: FLAG-Nurr1, expressed in 293F cells (UniProt P43354); assay: co-IP; 293F cells exogenously expressing FLAG-Nurr1 and/or HA-PARP1, immunoprecipitation followed by western blot

binding [1]: binds
binding [2]: no binding
Substance: HA-PARP1, in vitro translated (from UniProt P09874 1-1014) (enzyme)

binding [3]: binds
Substance: Nurr1 (NR4A2), endogenous in H295R cells (from UniProt P43354 1-598)

binding [4]: binds
Substance: HA-PARP1, expressed in 293F cells (from UniProt P09874 1-1014) (enzyme)
